In patent US20250283871A1, “COMPOSITIONS AND METHODS FOR MODULATING THE INTERACTION BETWEEN SS18-SSX FUSION ONCOPROTEIN AND NUCLEOSOMES” (Dana-Farber Cancer Institute, Inc., priority 2020, published 2025):

B1: HMGCL (protein, UniProt P35914 28-325, looked up)
Hydroxymethylglutaryl-CoA …: TLPKRVKIVEVGPRDGLQNEKNIVSTPVKIKLIDMLSEAGLSVIETTSFVSPKWVPQMGDHTEVLKGIQKFPGINYPVLTPNLKGFEAAVAAGAKEVVIFGAASELFTKKNINCSIEESFQRFDAILKAAQSANISVRGYVSCALGCPYEGKISPAKVAEVTKKFYSMGCYEISLGDTIGVGTPGIMKDMLSAVMQEVPLAALAVHCHDTYGQALANTLMALQMGVSVVDSSVAGLGGCPYAQGASGNLATEDLVYMLEGLGIHTGVNLQKLLEAGNFICQALNRKTSSKVAQATCKL
B2: CPS1 (protein, UniProt P31327 39-1500, looked up)
Carbamoyl-phosphate synthase …: LSVKAQTAHIVLEDGTKMKGYSFGHPSSVAGEVVFNTGLGGYPEAITDPAYKGQILTMANPIIGNGGAPDTTALDELGLSKYLESNGIKVSGLLVLDYSKDYNHWLATKSLGQWLQEEKVPAIYGVDTRMLTKIIRDKGTMLGKIEFEGQPVDFVDPNKQNLIAEVSTKDVKVYGKGNPTKVVAVDCGIKNNVIRLLVKRGAEVHLVPWNHDFTKMEYDGILIAGGPGNPALAEPLIQNVRKILESDRKEPLFGISTGNLITGLAAGAKTYKMSMANRGQNQPVLNITNKQAFITAQNHGYALDNTLPAGWKPLFVNVNDQTNEGIMHESKPFFAVQFHPEVTPGPIDTEYLFDSFFSLIKKGKATTITSVLPKPALVASRVEVSKVLILGSGGLSIGQAGEFDYSGSQAVKAMKEENVKTVLMNPNIASVQTNEVGLKQADTVYFLPITPQFVTEVIKAEQPDGLILGMGGQTALNCGVELFKRGVLKEYGVKVLGTSVESIMATEDRQLFSDKLNEINEKIAPSFAVESIEDALKAADTIGYPVMIRSAYALGGLGSGICPNRETLMDLSTKAFAMTNQILVEKSVTGWKEIEYEVVRDADDNCVTVCNMENVDAMGVHTGDSVVVAPAQTLSNAEFQMLRRTSINVVRHLGIVGECNIQFALHPTSMEYCIIEVNARLSRSSALASKATGYPLAFIAAKIALGIPLPEIKNVVSGKTSACFEPSLDYMVTKIPRWDLDRFHGTSSRIGSSMKSVGEVMAIGRTFEESFQKALRMCHPSIEGFTPRLPMNKEWPSNLDLRKELSEPSSTRIYAIAKAIDDNMSLDEIEKLTYIDKWFLYKMRDILNMEKTLKGLNSESMTEETLKRAKEIGFSDKQISKCLGLTEAQTRELRLKKNIHPWVKQIDTLAAEYPSVTNYLYVTYNGQEHDVNFDDHGMMVLGCGPYHIGSSVEFDWCAVSSIRTLRQLGKKTVVVNCNPETVSTDFDECDKLYFEELSLERILDIYHQEACGGCIISVGGQIPNNLAVPLYKNGVKIMGTSPLQIDRAEDRSIFSAVLDELKVAQAPWKAVNTLNEALEFAKSVDYPCLLRPSYVLSGSAMNVVFSEDEMKKFLEEATRVSQEHPVVLTKFVEGAREVEMDAVGKDGRVISHAISEHVEDAGVHSGDATLMLPTQTISQGAIEKVKDATRKIAKAFAISGPFNVQFLVKGNDVLVIECNLRASRSFPFVSKTLGVDFIDVATKVMIGENVDEKHLPTLDHPIIPADYVAIKAPMFSWPRLRDADPILRCEMASTGEVACFGEGIHTAFLKAMLSTGFKIPQKGILIGIQQSFRPRFLGVAEQLHNEGFKLFATEATSDWLNANNVPATPVAWPSQEGQNPSLSSIRKLIRDGSIDLVINLPNNNTKFVHDNYVIRRTAVDSGIPLLTNFQVTKLFAEAVQKSRKVDSKSLFHYRQYSAGKAA
B3: ATL2 (protein, UniProt Q8NHH9 1-583, looked up)
Atlastin-2: MAEGDEAARGQQPHQGLWRRRRTSDPSAAVNHVSSTTSLGENYEDDDLVNSDEVMKKPCPVQIVLAHEDDHNFELDEEALEQILLQEHIRDLNIVVVSVAGAFRKGKSFLLDFMLRYMYNKDSQSWIGGNNEPLTGFTWRGGCERETTGIQVWNEVFVIDRPNGTKVAVLLMDTQGAFDSQSTIKDCATVFALSTMTSSVQVYNLSQNIQEDDLQHLQLFTEYGRLAMEEIYQKPFQTLMFLIRDWSYPYEHSYGLEGGKQFLEKRLQVKQNQHEELQNVRKHIHNCFSNLGCFLLPHPGLKVATNPSFDGRLKDIDEDFKRELRNLVPLLLAPENLVEKEISGSKVTCRDLVEYFKAYIKIYQGEELPHPKSMLQATAEANNLAAVAGARDTYCKSMEQVCGGDKPYIAPSDLERKHLDLKEVAIKQFRSVKKMGGDEFCRRYQDQLEAEIEETYANFIKHNDGKNIFYAARTPATLFAVMFAMYIISGLTGFIGLNSIAVLCNLVMGLALIFLCTWAYVKYSGEFREIGTVIDQIAETLWEQVLKPLGDNLMEENIRQSVTNSIKAGLTDQVSHHARLKTD
B4: KSR2 (protein, UniProt Q6VAB6 1-950, looked up)
Kinase suppressor of Ras 2: MDEENMTKSEEQQPLSLQKALQQCELVQNMIDLSISNLEGLRTKCATSNDLTQKEIRTLESKLVKYFSRQLSCKKKVALQERNAELDGFPQLRHWFRIVDVRKEVLEEISPGQLSLEDLLEMTDEQVCETVEKYGANREECARLNASLSCLRNVHMSGGNLSKQDWTIQWPTTETGKENNPVCPPEPTPWIRTHLSQSPRVPSKCVQHYCHTSPTPGAPVYTHVDRLTVDAYPGLCPPPPLESGHRSLPPSPRQRHAVRTPPRTPNIVTTVTPPGTPPMRKKNKLKPPGTPPPSSRKLIHLIPGFTALHRSKSHEFQLGHRVDEAHTPKAKKKSKPLNLKIHSSVGSCENIPSQQRSPLLSERSLRSFFVGHAPFLPSTPPVHTEANFSANTLSVPRWSPQIPRRDLGNSIKHRFSTKYWMSQTCTVCGKGMLFGLKCKNCKLKCHNKCTKEAPPCHLLIIHRGDPARLVRTESVPCDINNPLRKPPRYSDLHISQTLPKTNKINKDHIPVPYQPDSSSNPSSTTSSTPSSPAPPLPPSATPPSPLHPSPQCTRQQKNFNLPASHYYKYKQQFIFPDVVPVPETPTRAPQVILHPVTSNPILEGNPLLQIEVEPTSENEEVHDEAEESEDDFEEMNLSLLSARSFPRKASQTSIFLQEWDIPFEQLEIGELIGKGRFGQVYHGRWHGEVAIRLIDIERDNEDQLKAFKREVMAYRQTRHENVVLFMGACMSPPHLAIITSLCKGRTLYSVVRDAKIVLDVNKTRQIAQEIVKGMGYLHAKGILHKDLKSKNVFYDNGKVVITDFGLFSISGVLQAGRREDKLRIQNGWLCHLAPEIIRQLSPDTEEDKLPFSKHSDVFALGTIWYELHAREWPFKTQPAEAIIWQMGTGMKPNLSQIGMGKEISDILLFCWAFEQEERPTFTKLMDMLEKLPKRNRRLSHPGHFWKSAEL
B5: SURF1 (protein, UniProt Q15526 1-300, looked up)
Surfeit locus protein 1: MAAVAALQLGLRAAGLGRAPASAAWRSVLRVSPRPGVAWRPSRCGSSAAEASATKAEDDSFLQWVLLLIPVTAFGLGTWQVQRRKWKLNLIAELESRVLAEPVPLPADPMELKNLEYRPVKVRGCFDHSKELYMMPRTMVDPVREAREGGLISSSTQSGAYVVTPFHCTDLGVTILVNRGFVPRKKVNPETRQKGQIEGEVDLIGMVRLTETRQPFVPENNPERNHWHYRDLEAMARITGAEPIFIDANFQSTVPGGPIGGQTRVTLRNEHLQYIVTWYGLSAATSYLWFKKFLRGTPGV
B6: ACSL1 (protein, UniProt P33121 1-698, looked up)
Long-chain-fatty-acid--CoA …: MQAHELFRYFRMPELVDFRQYVRTLPTNTLMGFGAFAALTTFWYATRPKPLKPPCDLSMQSVEVAGSGGARRSALLDSDEPLVYFYDDVTTLYEGFQRGIQVSNNGPCLGSRKPDQPYEWLSYKQVAELSECIGSALIQKGFKTAPDQFIGIFAQNRPEWVIIEQGCFAYSMVIVPLYDTLGNEAITYIVNKAELSLVFVDKPEKAKLLLEGVENKLIPGLKIIVVMDAYGSELVERGQRCGVEVTSMKAMEDLGRANRRKPKPPAPEDLAVICFTSGTTGNPKGAMVTHRNIVSDCSAFVKATENTVNPCPDDTLISFLPLAHMFERVVECVMLCHGAKIGFFQGDIRLLMDDLKVLQPTVFPVVPRLLNRMFDRIFGQANTTLKRWLLDFASKRKEAELRSGIIRNNSLWDRLIFHKVQSSLGGRVRLMVTGAAPVSATVLTFLRAALGCQFYEGYGQTECTAGCCLTMPGDWTAGHVGAPMPCNLIKLVDVEEMNYMAAEGEGEVCVKGPNVFQGYLKDPAKTAEALDKDGWLHTGDIGKWLPNGTLKIIDRKKHIFKLAQGEYIAPEKIENIYMRSEPVAQVFVHGESLQAFLIAIVVPDVETLCSWAQKRGFEGSFEELCRNKDVKKAILEDMVRLGKDSGLKPFEQVKGITLHPELFSIDNGLLTPTMKAKRPELRNYFRSQIDDLYSTIKV
B7: EID2 (protein, UniProt Q8N6I1 1-236, looked up)
EP300-interacting inhibitor …: MSKLPADSSVPQTGAANGDRDVPQAEVGRGRREPAPAQPEEAGEGAMAAARGGPVPAAREGRMAAARAAPAAAARGAPVAAAALARAAAAGRESPAAAAAREARMAEVARLLGEPVDEEGPEGRPRSRHGNGGLAALPYLRLRHPLSVLGINYQQFLRHYLENYPIAPGRIQELEERRRRFVEACRAREAAFDAEYQRNPHRVDLDILTFTIALTASEVINPLIEELGCDKFINRE
B8: ALG8 (protein, UniProt Q9BVK2 1-526, looked up)
Dolichyl pyrophosphate …: MAALTIATGTGNWFSALALGVTLLKCLLIPTYHSTDFEVHRNWLAITHSLPISQWYYEATSEWTLDYPPFFAWFEYILSHVAKYFDQEMLNVHNLNYSSSRTLLFQRFSVIFMDVLFVYAVRECCKCIDGKKVGKELTEKPKFILSVLLLWNFGLLIVDHIHFQYNGFLFGLMLLSIARLFQKRHMEGAFLFAVLLHFKHIYLYVAPAYGVYLLRSYCFTANKPDGSIRWKSFSFVRVISLGLVVFLVSALSLGPFLALNQLPQVFSRLFPFKRGLCHAYWAPNFWALYNALDKVLSVIGLKLKFLDPNNIPKASMTSGLVQQFQHTVLPSVTPLATLICTLIAILPSIFCLWFKPQGPRGFLRCLTLCALSSFMFGWHVHEKAILLAILPMSLLSVGKAGDASIFLILTTTGHYSLFPLLFTAPELPIKILLMLLFTIYSISSLKTLFRKEKPLFNWMETFYLLGLGPLEVCCEFVFPFTSWKVKYPFIPLLLTSVYCAVGITYAWFKLYVSVLIDSAIGKTKKQ

Tested on: BAF complex subunits and histone proteins
Assay: Mass spectrometry proteomics of purified HA-SS18 WT and HA-SS18-SSX1 complexes (Tables 5A-5E)
Design: species or system human
Settings: HA-SS18SSX1_NE_peptides (Table 5B); HA-SS18-SSX1 BAF complex purification from soluble nuclear extract, HEK-293T

Molecule | Total (peptides) | Unique (peptides)
B1 | 1 | 1
B2 | 1 | 1
B3 | 1 | 1
B4 | 1 | 1
B5 | 1 | 1
B6 | 1 | 1
B7 | 1 | 1
B8 | 1 | 1

Same assay, conditions: HA-SS18WT_CHR_peptides: protein identified in HA-SS18 WT BAF complex purification from nuclease-treated solubilized chromatin (CHR), HEK-293T

Molecule | Total (total peptides) | Unique (unique peptides)
B7 | 1 | 1

Same assay, conditions: HA-SS18WT_NE_peptides: proteins co-purified with HA-SS18 WT from nuclear extract (NE), HEK-293T

Molecule | Total (peptides) | Unique (peptides)
B3 | 2 | 2
B4 | 1 | 1
